Test results reported in PubChem BioAssay AID2685 (National Center for Advancing Translational Sciences (NCATS), 2010).
Some of the results follow. Shown are side measurements of this screen, not its main read-out; they come without a call. The list favours compounds with an active or inconclusive main result. Words in brackets tell the shape of the fitted curve; partial curves, single points and poor fits give uncertain potencies.

Experiment: qHTS Assay for Lipid Storage Modulators in Drosophila S3 Cells;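 for cell number change: cells counted by Cell Tracker Red CMTPX staining in the red channel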
Details: BODIPY lipid droplet fluorescence, 18-24 h; for cell number change: measured here: cell count max response, cells fed with added oleic acid
Summary of the method: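 Laser-scanning cytometry quantifies lipid droplet accumulation (500–530 nm total intensity; droplet/cell object ratio) in oleic acid-fed (400 uM added) Drosophila S3 cells treated with a concentration series. 20 uM Triacsin C defined 100% inhibition.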

[1] = measured here: lipid fluorescence (Fed channel) AC50, cells fed with added oleic acid
[2] = measured here: cell number channel AC50, cells fed with added oleic acid

SMILES | cell number change [%] | AC50 [1] | AC50 [2]
C=CCN(CC=C)C(=O)Nc1ccc2nc(C)sc2c1 | 24.2 | – | –
O=C(CSc1nnc(-c2cccnc2)n1Cc1ccco1)Nc1cccc(O)c1 | 10.8 | – | –
Cc1ccc(C#N)c(SCc2nnc(-c3ccc(Cl)cc3)o2)n1 | 12.5 | 11.6 µM [rising, partial curve] | –
COc1ccc(C(=O)NCCc2ccc(S(N)(=O)=O)cc2)cc1OC | -25.1 | 0.164 µM [falling, full curve] | –
CCn1c(SCC(=O)Nc2ccc(C(=O)OC)cc2)nnc1-c1cccs1 | – | – | 2.59 µM [rising, partial curve]
COc1ccc(C(CC(=O)N2CCCCC2)NC(=O)C(F)(F)F)cc1 (configuration not stated) | 23.3 | – | –
Cc1onc(-c2ccccc2Cl)c1C(=O)NCC1CCCO1 (configuration not stated) | -16.9 | – | –
CCOc1ccccc1OCCC(=O)OCC(=O)Nc1c(C)cc(C)cc1C | -9.01 | 0.00517 µM [rising, full curve, poor fit] | –
Cc1cccc(NS(=O)(=O)c2cc(Cl)ccc2Cl)n1 | 5.22 | – | –
COc1ccc2c(c1)c1nc3n(c(=O)c1n2CC(=O)Nc1cc(C)[nH]n1)CCS3 | -7.69 | – | –
O=C1c2ccccc2C(=O)N1CCc1csc(-c2ccccc2)n1 | – | 0.411 µM [rising, single point] | –
O=C(c1ccccn1)N(c1ccccc1)C1(C(=O)NC2CCCCC2)CCCCC1 | -29.6 | 29.1 µM [falling, partial curve, poor fit] | –
Cc1cc(C)cc(C(=O)Nc2cccc(NC(=O)c3ccco3)c2)c1 | 25.2 | 29.1 µM [falling, single point] | –
CC(=O)NC(CCS(C)(=O)=O)C(=O)Nc1ccccc1 (configuration not stated) | 5.01 | 23.1 µM [falling, single point] | –
Cc1nn(-c2cccc(C(=O)O)c2)c(C)c1[N+](=O)[O-] | -7.51 | 0.206 µM [falling, full curve, poor fit] | 0.206 µM [falling, full curve, poor fit]
Cc1nc2sc(C(c3ccc(Cl)cc3)N3CC(C)OC(C)C3)c(O)n2n1 (configuration not stated) | -37.7 | 11.6 µM [falling, partial curve, poor fit] | 11.6 µM [falling, partial curve, poor fit]
CCCCn1c(CCC(=O)O)nc2cc(S(=O)(=O)N(C)C)ccc21 | -18.1 | 0.651 µM [falling, full curve] | 0.00461 µM [falling, full curve]
CSCCC(NC(=O)c1occc1C)C(=O)O (configuration not stated) | -138 | 23.1 µM [falling, partial curve] | 25.9 µM [falling, partial curve]
CC(=O)c1cccc(NC(=O)Cc2coc3cc4c(cc23)CCC4)c1 | 2.41 | 2.59 µM [rising, partial curve, poor fit] | –
CCCCOCP(=O)(CC)COCCCC | 5.4 | – | –
O=C(Cn1c(C(=O)NCCCN2CCOCC2)cc2sccc21)c1ccccc1 | -47.5 | 7.31 µM [falling, partial curve] | 6.51 µM [falling, full curve]

Complete entries, quoted from the list. Values in the order: cell number change [%]	AC50 [1]	AC50 [2]
CCCCn1c(CCC(=O)O)nc2cc(S(=O)(=O)N(C)C)ccc21 in the list: -18.1	0.651 µM [falling, full curve]	0.00461 µM [falling, full curve]
C=CCN(CC=C)C(=O)Nc1ccc2nc(C)sc2c1 in the list: 24.2	–	–

More compounds follow:

SMILES | cell number change [%] | AC50 [1] | AC50 [2]
COc1cccc(-c2nnc(SCc3ccc(C#N)cc3)n2Cc2ccco2)c1 | 59.7 | 5.17 µM [rising, single point] | 5.8 µM [rising, partial curve]
COCCCn1c(=O)c2sccc2n2c(CCCC(=O)NCC3CCCO3)nnc12 (configuration not stated) | – | 29.1 µM [falling, partial curve] | –
O=C(COC(=O)c1ccco1)NCc1ccccc1Cl | -37.7 | 0.82 µM [falling, full curve] | 2.06 µM [falling, full curve]
O=C(c1ccc2c(c1)OCCO2)N(c1ccccn1)C1CCCCC1 | -12.8 | – | –
O=C(Nc1ccc(C(F)(F)F)cc1)c1ccc2nc[nH]c2c1 | 13.1 | 16.4 µM [rising, single point] | –
COc1cc(/C=C2\C(=O)N(CCC#N)N=C2C)ccc1OCC(=O)Nc1ccccc1 | -23.6 | 6.51 µM [falling, full curve, poor fit] | –
COc1ccc(NC(=S)NNC(=O)c2ccccc2OC(F)F)cc1 | – | 6.51 µM [rising, single point] | –
COc1ccc(C(=O)Nc2ccc(N3CCCC3)cc2)cc1 | – | 0.461 µM [rising, single point] | 2.06 µM [rising, partial curve]
CC(=O)NCCC(=O)Nc1cc(S(=O)(=O)N2CCOCC2)ccc1Oc1ccccc1 | -4.95 | 29.1 µM [rising, single point] | 0.58 µM [rising, single point]
CCCc1cc(=O)oc2c3c(cc(OCC(=O)N[C@@H](C)C(=O)O)c12)OC(C)(C)CC3 | -0.472 | 1.3 µM [falling, full curve] | –
O=S(=O)(c1ccc(OCC(O)CN2CCc3ccccc3C2)cc1)N1CCOCC1 (configuration not stated) | 9.75 | 16.4 µM [falling, partial curve] | –
Cc1ccc2nc3c(cc(C(=O)NCCc4ccccc4)c(=N)n3CCN3CCOCC3)c(=O)n2c1 | -17.1 | – | –
COc1cc(OC)c(OC)cc1CNCc1ccc2c(c1)OCO2 | -6.08 | – | –
CCCCNC(=S)N(C)/N=C/c1ccc2c(c1)OCO2 | 26.3 | – | –
O=C(O)/C(=N/NC(=O)c1ccc(Cl)cc1)c1ccccc1 | -20.5 | 0.82 µM [falling, partial curve, poor fit] | –
O=C(CSc1nncn1-c1ccccc1)N1CCCC1 | – | 0.501 µM [falling, full curve] | –
C=CCOC(=O)C1=C(C)Nc2nnnn2C1c1cccc(OC)c1OC (configuration not stated) | -12.3 | 0.411 µM [rising, full curve] | –
CC1(C)Cc2nc(-c3ccccc3)n3cnnc3c2CO1 | -1.21 | – | –
CCOC(=O)NC1(C(F)(F)F)C(=O)NC(C)=C1C#N (configuration not stated) | -19.7 | 29.1 µM [falling, single point] | –
COc1cc(/C=N/Nc2cc(C)nc(NS(=O)(=O)c3ccccc3)n2)ccc1O | 15.2 | 29.1 µM [rising, single point] | –
Cc1ccc(C(=O)c2cc(C)sc2NC(=O)CN2CCN(C(=O)c3ccco3)CC2)cc1 | -21.7 | – | –

Gathered by group: the compounds so far with a CF3 group
SMILES | cell number change [%] | AC50 [1] | AC50 [2]
COc1ccc(C(CC(=O)N2CCCCC2)NC(=O)C(F)(F)F)cc1 (configuration not stated) | 23.3 | – | –
O=C(Nc1ccc(C(F)(F)F)cc1)c1ccc2nc[nH]c2c1 | 13.1 | 16.4 µM [rising, single point] | –
CCOC(=O)NC1(C(F)(F)F)C(=O)NC(C)=C1C#N (configuration not stated) | -19.7 | 29.1 µM [falling, single point] | –

(listing goes on)

SMILES | cell number change [%] | AC50 [1] | AC50 [2]
N#Cc1c(SCC(N)=O)nc(-c2ccccc2)c2c1CCCC2 | 31.3 | 29.1 µM [rising, single point] | 18.4 µM [rising, single point]
N#C/C(=C\c1ccc(OCCN2CCOCC2)cc1)C(=O)Nc1ccccc1F | -36.4 | 4.11 µM [falling, partial curve] | 29.1 µM [falling, single point]
COc1ccc(-n2c(COc3ccccc3)n[nH]c2=S)cc1 | -10.2 | 1.46 µM [falling, full curve, poor fit] | –
Cc1ccc(C(=O)O)c(C(=O)Nc2nc3ccccc3s2)c1 | -3.05 | – | –
O=C(CSc1ncn[nH]1)NCc1ccc2c(c1)OCO2 | -1.49 | – | –
CCOc1ccccc1-c1nc(CN2CCC(C(=O)N3CCOCC3)CC2)c(C)o1 | 31.7 | 5.17 µM [rising, full curve] | 29.1 µM [rising, single point]
CC(OC(=O)CNC(=O)c1ccc(Cl)c([N+](=O)[O-])c1)C(=O)NC1CCCCC1C (configuration not stated) | 87.6 | – | 16.4 µM [rising, single point]
COc1ccc(C(=O)N2N=C(c3cccs3)CC2c2ccccc2O)cc1 (configuration not stated) | 23.8 | 4.61 µM [rising, single point] | –
CC1CCCN(S(=O)(=O)c2ccc3c(c2)CCN3C(=O)C2CCC2)C1 (configuration not stated) | 13.4 | – | –
O=C(CCSc1nnc(-c2ccncc2)o1)Nc1ccccc1Cl | 38 | 32.6 µM [rising, single point] | 29.1 µM [rising, single point]
Cc1ccc(/C=C/S(=O)(=O)NCc2ccc(F)cc2)cc1 | -27 | 6.51 µM [rising, partial curve, poor fit] | –
CCc1ccc(CN(C)C(C)C(=O)Nc2ccc(S(=O)(=O)N3CCCC3)cc2)cc1 (configuration not stated) | -52.9 | 5.8 µM [falling, partial curve] | 18.4 µM [falling, partial curve]
CSc1nnc(SCC(=O)N(C)c2c(N)n(Cc3ccccc3)c(=O)[nH]c2=O)s1 | 8.72 | 29.1 µM [falling, single point] | –
COc1ccc(CN(CC(=O)NCc2ccc3c(c2)OCO3)C(=O)c2csnn2)cc1 | 30.4 | – | 9.2 µM [rising, partial curve, poor fit]
CCCS(=O)(=O)N1CCCC(C(=O)NCCCOC(C)C)C1 (configuration not stated) | -7.28 | – | 0.00517 µM [falling, full curve, poor fit]
Cc1c(CC(=O)N2C[C@H]3C[C@@H](C2)c2cccc(=O)n2C3)c(=O)oc2cc3occ(C(C)(C)C)c3cc12 | -9.06 | – | –
O=C(CSCc1ccccc1Br)N/N=C/c1ccc2c(c1)OCO2 | -10.1 | – | –
CC1(NC(=O)/C=C/c2nc3ccccc3s2)CCS(=O)(=O)C1 (configuration not stated) | -24.8 | 29.1 µM [falling, single point] | –
Cc1[nH]nc2c1C1(CCN(C(=O)c3ccccc3)CC1)C(C#N)=C(N)O2 | 25.7 | 0.731 µM [falling, full curve] | 0.259 µM [falling, full curve]
O=C(OCc1cc(=O)n2c(n1)sc1ccccc12)c1ccc(O)cc1 | 7.29 | 29.1 µM [falling, single point] | –
O=C(Nc1cccc(Cl)c1)c1ccc2c(c1)OCCO2 | 1.8 | 0.82 µM [falling, full curve] | –
